# ± gives the standard deviation of the averaged measurements. The entries are a selection whose mix differs from that of the whole data set.
# Sequences of proteins named here, by UniProt entry; tags and fusion partners are left off. A change or cut given only in a name is not applied to a line headed by its entry.
# UniProt Q7L5N1: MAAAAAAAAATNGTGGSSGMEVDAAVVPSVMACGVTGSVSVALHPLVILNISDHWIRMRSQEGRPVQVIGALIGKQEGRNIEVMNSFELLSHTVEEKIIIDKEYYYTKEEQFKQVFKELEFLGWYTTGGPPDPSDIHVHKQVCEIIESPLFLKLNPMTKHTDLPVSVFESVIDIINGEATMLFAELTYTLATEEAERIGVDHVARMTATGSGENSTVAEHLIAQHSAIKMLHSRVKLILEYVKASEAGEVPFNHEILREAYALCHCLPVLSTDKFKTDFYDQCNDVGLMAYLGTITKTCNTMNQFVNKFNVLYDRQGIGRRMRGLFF
# UniProt O75376, whole entry: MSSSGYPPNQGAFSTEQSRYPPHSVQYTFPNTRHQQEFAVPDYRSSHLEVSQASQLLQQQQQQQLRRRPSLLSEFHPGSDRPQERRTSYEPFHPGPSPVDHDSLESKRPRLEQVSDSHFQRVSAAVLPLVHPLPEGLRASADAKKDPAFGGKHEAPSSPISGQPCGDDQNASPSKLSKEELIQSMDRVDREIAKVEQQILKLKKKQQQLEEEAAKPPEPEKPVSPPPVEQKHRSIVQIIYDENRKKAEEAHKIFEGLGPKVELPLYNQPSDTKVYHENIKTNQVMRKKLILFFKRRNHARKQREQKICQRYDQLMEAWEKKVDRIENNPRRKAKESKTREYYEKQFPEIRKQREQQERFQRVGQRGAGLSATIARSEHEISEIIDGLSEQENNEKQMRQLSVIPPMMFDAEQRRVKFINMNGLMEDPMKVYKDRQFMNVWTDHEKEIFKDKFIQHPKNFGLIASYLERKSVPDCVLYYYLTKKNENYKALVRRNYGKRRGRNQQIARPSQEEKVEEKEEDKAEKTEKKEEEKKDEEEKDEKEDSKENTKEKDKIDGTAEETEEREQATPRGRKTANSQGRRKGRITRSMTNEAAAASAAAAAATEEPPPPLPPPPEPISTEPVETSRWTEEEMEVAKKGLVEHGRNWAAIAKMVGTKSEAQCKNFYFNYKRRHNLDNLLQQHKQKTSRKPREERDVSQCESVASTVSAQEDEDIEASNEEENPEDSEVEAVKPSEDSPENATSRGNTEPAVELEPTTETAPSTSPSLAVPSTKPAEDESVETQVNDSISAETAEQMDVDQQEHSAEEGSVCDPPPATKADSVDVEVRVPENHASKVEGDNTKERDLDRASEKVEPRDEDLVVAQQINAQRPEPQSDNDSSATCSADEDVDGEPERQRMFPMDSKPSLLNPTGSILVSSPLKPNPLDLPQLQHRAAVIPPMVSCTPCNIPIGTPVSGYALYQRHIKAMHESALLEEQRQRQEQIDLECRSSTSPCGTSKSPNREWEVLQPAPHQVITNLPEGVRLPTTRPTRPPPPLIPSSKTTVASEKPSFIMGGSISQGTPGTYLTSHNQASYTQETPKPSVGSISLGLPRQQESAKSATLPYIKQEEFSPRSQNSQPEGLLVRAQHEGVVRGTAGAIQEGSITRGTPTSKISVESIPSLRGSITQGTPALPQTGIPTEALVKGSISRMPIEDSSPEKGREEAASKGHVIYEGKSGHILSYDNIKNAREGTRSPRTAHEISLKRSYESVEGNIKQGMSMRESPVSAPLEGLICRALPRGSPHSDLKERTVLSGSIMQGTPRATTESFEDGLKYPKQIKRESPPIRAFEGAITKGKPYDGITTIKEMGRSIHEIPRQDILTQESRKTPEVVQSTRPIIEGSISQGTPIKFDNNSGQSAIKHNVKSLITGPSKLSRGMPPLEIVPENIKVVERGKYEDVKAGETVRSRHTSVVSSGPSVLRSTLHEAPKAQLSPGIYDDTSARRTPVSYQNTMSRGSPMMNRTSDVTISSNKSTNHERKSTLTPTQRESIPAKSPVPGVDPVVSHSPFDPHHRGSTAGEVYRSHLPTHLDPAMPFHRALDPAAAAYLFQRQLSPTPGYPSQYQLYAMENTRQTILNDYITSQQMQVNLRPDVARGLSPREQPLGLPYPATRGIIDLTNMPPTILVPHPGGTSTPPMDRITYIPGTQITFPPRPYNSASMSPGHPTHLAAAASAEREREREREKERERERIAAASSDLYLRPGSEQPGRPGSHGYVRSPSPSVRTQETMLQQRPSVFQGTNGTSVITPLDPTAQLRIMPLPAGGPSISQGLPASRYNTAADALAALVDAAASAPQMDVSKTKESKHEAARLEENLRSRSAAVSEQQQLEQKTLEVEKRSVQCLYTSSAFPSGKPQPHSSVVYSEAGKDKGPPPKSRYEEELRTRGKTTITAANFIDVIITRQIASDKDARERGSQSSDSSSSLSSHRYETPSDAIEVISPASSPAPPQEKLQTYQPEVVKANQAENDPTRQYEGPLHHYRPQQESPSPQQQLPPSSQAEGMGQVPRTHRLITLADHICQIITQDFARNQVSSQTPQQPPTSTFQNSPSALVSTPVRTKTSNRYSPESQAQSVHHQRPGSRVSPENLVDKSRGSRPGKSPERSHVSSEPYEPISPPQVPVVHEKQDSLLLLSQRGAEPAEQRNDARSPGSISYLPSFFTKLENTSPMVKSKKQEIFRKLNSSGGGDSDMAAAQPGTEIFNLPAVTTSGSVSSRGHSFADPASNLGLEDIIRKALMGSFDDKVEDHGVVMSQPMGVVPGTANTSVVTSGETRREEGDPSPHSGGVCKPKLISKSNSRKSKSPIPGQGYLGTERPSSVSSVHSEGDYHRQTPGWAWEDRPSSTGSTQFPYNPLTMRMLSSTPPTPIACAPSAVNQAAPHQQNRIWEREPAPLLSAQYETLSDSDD
# UniProt O75496: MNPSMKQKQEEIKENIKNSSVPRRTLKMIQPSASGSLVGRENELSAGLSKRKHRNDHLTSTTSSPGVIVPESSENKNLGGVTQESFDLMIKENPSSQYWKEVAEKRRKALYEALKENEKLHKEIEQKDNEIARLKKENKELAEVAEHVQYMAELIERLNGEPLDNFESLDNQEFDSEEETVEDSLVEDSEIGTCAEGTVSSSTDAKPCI
# UniProt O14653: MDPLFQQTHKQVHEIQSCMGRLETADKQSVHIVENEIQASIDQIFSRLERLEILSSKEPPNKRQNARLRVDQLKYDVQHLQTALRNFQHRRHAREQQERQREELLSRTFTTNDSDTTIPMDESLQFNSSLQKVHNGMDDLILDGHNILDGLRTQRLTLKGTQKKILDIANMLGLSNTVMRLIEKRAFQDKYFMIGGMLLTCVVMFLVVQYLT
# UniProt Q9BQE3, whole entry: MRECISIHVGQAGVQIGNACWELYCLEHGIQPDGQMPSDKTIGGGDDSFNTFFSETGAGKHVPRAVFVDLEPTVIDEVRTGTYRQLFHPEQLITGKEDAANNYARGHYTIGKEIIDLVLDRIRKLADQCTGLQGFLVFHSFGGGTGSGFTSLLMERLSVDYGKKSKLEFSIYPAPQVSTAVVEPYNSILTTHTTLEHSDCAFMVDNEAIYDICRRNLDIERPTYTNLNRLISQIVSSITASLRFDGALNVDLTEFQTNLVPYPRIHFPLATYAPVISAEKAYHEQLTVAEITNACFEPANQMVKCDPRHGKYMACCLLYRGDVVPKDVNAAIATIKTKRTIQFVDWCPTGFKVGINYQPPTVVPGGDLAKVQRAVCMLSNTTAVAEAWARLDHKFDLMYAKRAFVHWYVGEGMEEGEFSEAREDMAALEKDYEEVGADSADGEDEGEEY
# UniProt Q9Y4P3: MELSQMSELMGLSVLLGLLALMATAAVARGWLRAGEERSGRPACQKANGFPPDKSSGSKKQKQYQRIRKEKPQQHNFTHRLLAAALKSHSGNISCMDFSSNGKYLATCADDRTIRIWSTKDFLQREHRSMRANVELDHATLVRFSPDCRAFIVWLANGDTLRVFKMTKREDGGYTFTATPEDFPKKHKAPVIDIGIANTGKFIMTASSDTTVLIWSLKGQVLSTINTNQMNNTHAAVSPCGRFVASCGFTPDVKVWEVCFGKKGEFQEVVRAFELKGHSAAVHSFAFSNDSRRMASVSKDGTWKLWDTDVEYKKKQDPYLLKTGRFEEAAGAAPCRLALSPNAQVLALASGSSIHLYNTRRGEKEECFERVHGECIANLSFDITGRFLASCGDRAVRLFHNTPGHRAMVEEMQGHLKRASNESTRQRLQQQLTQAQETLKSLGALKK
# UniProt Q86U42: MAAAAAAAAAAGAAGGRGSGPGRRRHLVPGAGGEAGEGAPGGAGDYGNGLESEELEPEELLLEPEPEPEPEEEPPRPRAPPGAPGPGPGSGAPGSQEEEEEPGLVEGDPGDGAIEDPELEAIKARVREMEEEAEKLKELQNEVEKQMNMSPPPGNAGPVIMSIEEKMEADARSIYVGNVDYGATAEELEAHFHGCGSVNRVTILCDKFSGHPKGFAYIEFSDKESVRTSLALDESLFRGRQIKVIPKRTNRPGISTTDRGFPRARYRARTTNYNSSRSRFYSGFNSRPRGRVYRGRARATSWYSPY
# UniProt P04216: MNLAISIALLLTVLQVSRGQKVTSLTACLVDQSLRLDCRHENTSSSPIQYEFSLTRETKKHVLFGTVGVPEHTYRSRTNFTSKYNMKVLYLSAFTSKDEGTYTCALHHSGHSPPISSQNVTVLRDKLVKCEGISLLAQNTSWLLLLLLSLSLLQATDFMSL
# UniProt Q9H9C1: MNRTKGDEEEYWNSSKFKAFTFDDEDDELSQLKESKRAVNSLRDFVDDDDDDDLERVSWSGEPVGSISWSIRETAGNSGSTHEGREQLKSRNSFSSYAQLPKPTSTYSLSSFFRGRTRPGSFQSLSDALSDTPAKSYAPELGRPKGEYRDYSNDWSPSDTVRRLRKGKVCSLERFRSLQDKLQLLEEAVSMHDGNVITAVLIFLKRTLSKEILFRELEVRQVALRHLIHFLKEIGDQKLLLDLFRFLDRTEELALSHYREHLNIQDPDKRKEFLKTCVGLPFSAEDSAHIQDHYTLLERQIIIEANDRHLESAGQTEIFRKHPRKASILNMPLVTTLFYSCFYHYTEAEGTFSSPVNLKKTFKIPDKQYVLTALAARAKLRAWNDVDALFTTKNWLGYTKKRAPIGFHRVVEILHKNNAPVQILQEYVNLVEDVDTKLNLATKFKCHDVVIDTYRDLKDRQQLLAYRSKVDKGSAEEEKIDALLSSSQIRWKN
# UniProt Q8IW19: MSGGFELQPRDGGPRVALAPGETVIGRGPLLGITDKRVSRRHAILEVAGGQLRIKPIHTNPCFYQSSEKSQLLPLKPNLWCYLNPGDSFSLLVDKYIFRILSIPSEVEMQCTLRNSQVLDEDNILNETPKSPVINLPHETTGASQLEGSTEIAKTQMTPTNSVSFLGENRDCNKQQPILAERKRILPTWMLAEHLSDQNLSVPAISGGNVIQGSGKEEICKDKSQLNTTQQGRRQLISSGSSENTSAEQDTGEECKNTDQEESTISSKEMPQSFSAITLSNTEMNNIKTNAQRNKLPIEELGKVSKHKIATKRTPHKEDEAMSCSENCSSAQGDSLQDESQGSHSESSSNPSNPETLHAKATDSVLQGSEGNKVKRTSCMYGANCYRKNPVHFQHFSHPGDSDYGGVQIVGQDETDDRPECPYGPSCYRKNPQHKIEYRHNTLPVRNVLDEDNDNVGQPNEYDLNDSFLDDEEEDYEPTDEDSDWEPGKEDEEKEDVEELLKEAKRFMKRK
# UniProt Q9Y2E5: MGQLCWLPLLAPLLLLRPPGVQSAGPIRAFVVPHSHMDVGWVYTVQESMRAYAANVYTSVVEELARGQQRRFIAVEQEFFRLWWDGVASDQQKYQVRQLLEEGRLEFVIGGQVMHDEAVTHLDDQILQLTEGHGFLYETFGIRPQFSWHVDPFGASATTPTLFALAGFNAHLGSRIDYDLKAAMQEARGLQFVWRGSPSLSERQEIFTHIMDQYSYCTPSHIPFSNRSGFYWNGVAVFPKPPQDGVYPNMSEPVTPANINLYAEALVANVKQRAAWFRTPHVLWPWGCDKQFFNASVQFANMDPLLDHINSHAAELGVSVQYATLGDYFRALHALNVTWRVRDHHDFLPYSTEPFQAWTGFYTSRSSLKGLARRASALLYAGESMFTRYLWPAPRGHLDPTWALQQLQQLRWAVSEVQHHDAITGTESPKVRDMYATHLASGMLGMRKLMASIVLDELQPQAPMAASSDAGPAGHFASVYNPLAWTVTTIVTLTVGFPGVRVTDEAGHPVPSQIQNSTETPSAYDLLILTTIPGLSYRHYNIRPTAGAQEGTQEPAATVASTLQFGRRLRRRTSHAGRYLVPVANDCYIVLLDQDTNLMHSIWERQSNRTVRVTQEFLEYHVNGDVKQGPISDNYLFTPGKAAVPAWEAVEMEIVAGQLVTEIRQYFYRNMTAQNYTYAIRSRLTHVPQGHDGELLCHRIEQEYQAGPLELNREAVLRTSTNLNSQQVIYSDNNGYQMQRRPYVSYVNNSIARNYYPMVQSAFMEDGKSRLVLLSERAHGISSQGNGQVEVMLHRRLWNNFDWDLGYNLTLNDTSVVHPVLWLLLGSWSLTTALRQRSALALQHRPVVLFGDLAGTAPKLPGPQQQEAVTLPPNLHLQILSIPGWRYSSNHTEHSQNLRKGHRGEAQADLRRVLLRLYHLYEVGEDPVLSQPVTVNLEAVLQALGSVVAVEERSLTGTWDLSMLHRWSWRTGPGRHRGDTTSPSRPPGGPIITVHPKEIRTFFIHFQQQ
# Compound: Nc1ncnc2c1ncn2[C@@H]1O[C@H](COP(=O)(O)OP(=O)(O)OP(=O)(O)O)[C@@H](O)[C@H]1O [adenosine triphosphate]
# Assay: NP40-soluble protein abundance relative to vehicle (solubility fold change) (ratio); higher = more soluble protein in presence of ATP
# In short: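 Values are fold changes against the detergent-processed vehicle, based on vsn-normalised intensities. Jurkat crude lysate was treated at eight concentrations from 0.1 to 10 mM (10 min at room temperature, then 3 min at 37 °C), solubilised with 0.8% NP40 and benzonase, ultracentrifuged and analysed by TMT-labelled LC-MS/MS over three independent experiments.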
Target,NP40-soluble protein abundance (concentration: 1mM),NP40-soluble protein abundance (concentration: 2mM),NP40-soluble protein abundance (concentration: 4mM),NP40-soluble protein abundance (concentration: 6mM),NP40-soluble protein abundance (concentration: 8mM),NP40-soluble protein abundance (concentration: 10mM)
E7EM64 and related entries (UniProt Q7L5N1),1.06 ± 0.086,1.01 ± 0.033,0.998 ± 0.051,0.968 ± 0.074,1.02 ± 0.041,0.992 ± 0.052
E7EW50 and related entries (UniProt O75376),1.01 ± 0.037,1 ± 0.054,1 ± 0.042,1.06 ± 0.082,1.02 ± 0.041,1.06 ± 0.052
E2QRF9 and related entries (UniProt O75496),0.9557 ± 0.0071,0.916 ± 0.053,0.923 ± 0.015,0.91 ± 0.049,0.88 ± 0.029,0.882 ± 0.11
E9PRR0 and related entries (UniProt O95831),1.03 ± 0.026,1 ± 0.03,0.983 ± 0.025,0.973 ± 0.046,0.994 ± 0.041,0.977 ± 0.02
E7EQ34 and related entries (UniProt O14653+I3L4Z6+E7EQ34),1 ± 0.1,1 ± 0.092,1.03 ± 0.038,1.05 ± 0.086,1.02 ± 0.066,0.971 ± 0.051
F5H5D3 and related entries (UniProt Q9BQE3),1.01 ± 0.13,0.943 ± 0.12,0.946 ± 0.081,0.872 ± 0.19,0.991 ± 0.075,0.762 ± 0.45
E7EN19 and related entries (UniProt O95819),0.992 ± 0.034,0.995 ± 0.024,0.999 ± 0.02,1.02 ± 0.021,1.014 ± 0.0066,1 ± 0.025
E9PF19 and related entries (UniProt Q9Y4P3),1.15 ± 0.045,1.23 ± 0.016,1.28 ± 0.028,1.3 ± 0.092,1.36 ± 0.026,1.41 ± 0.039
G3V4T2 and related entries (UniProt Q86U42),0.964 ± 0.073,0.963 ± 0.035,0.97 ± 0.03,1.03 ± 0.072,0.994 ± 0.019,0.993 ± 0.014
F5H8D7 and related entries (UniProt P18887),1.02 ± 0.023,1.01 ± 0.037,0.957 ± 0.022,1.04 ± 0.018,0.999 ± 0.022,1.049 ± 0.0071
E9PIM6 and related entries (UniProt P04216),0.932 ± 0.027,1.01 ± 0.02,0.961 ± 0.025,0.951 ± 0.096,0.874 ± 0.028,0.918 ± 0.13
G3V4K3 and related entries (UniProt Q9H9C1),0.982 ± 0.099,0.95 ± 0.072,0.949 ± 0.068,0.95 ± 0.084,0.971 ± 0.057,0.942 ± 0.051
E9PIC6 and related entries (UniProt P06746),1.09 ± 0.041,1.07 ± 0.013,1.07 ± 0.011,1.15 ± 0.022,1.13 ± 0.018,1.144 ± 0.0095
F8WET0 and related entries (UniProt Q8IW19),1.18 ± 0.11,1.21 ± 0.28,1.08 ± 0.21,1.17 ± 0.3,1.05 ± 0.2,1.2 ± 0.12
E9PCD7 and related entries (UniProt Q9Y2E5),0.927 ± 0.063,0.922 ± 0.069,0.902 ± 0.072,0.883 ± 0.053,0.866 ± 0.048,0.887 ± 0.1

# Some entries already given, reduced to NP40-soluble protein abundance (concentration: 10mM) and NP40-soluble protein abundance (concentration: 4mM):
Target,NP40-soluble protein abundance (concentration: 10mM),NP40-soluble protein abundance (concentration: 4mM)
E7EM64 and related entries (UniProt Q7L5N1),0.992 ± 0.052,0.998 ± 0.051
E9PIC6 and related entries (UniProt P06746),1.144 ± 0.0095,1.07 ± 0.011

# Reference: the supplement of paper PMC6411743
